These results are taken from publication doi:10.1101/2020.11.26.384925.

These are yes or no findings as the source states them, for the method shown. In cells and extracts the contact can be indirect. Some binding calls cover weakened binding; strength is not graded here. Tags and fused reporters may be left off the sequences shown.

The target in test [1] is T1, MuSK-HA (muscle specific kinase) (rat) (UniProt Q62838).
T1 sequence: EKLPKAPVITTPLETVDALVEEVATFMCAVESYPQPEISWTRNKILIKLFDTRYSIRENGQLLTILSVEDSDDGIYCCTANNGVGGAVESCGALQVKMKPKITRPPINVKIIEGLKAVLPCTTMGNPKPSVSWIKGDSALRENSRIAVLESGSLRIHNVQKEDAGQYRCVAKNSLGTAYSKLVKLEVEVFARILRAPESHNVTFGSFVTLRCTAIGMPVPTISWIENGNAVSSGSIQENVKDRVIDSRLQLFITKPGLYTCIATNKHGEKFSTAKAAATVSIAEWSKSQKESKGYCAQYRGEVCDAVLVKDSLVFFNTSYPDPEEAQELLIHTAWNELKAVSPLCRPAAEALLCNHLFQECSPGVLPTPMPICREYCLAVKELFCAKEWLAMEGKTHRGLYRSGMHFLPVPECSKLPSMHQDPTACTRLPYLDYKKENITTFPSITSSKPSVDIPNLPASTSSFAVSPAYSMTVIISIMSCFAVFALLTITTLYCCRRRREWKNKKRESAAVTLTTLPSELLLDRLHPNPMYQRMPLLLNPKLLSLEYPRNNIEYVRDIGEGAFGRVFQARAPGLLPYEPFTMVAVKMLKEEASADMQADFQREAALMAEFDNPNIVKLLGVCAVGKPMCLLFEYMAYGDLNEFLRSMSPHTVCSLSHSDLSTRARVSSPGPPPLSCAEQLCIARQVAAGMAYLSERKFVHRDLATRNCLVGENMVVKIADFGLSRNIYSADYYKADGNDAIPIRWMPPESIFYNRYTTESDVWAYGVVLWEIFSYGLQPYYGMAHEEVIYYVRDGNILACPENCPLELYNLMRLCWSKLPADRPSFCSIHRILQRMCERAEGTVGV
The test is described as follows: co-IP.

The target of test [2] is T2, GFP-Vangl2 (Van Gogh-Like protein 2) (mouse) (UniProt Q91ZD4).
T2 sequence: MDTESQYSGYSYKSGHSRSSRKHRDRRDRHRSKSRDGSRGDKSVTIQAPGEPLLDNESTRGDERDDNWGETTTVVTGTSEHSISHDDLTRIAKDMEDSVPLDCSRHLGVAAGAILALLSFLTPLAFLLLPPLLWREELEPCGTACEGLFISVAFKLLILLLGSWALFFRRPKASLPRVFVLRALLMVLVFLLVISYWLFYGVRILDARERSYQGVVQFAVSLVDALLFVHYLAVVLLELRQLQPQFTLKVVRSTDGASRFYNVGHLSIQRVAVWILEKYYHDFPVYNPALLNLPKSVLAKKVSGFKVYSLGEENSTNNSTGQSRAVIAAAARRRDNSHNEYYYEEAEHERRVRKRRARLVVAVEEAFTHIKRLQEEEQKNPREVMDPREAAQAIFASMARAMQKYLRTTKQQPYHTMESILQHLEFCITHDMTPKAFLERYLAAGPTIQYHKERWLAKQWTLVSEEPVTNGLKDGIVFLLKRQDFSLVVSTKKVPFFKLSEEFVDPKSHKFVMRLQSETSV
The test is described as follows: proximity ligation.

For test [3], the target named is T2, GFP-Vangl2 (Van Gogh-Like protein 2) (mouse). The test is described as follows: co-IP.

B1: GFP-Vangl2 (Van Gogh-Like protein 2) (protein, UniProt Q91ZD4 1-521)
chain: MDTESQYSGYSYKSGHSRSSRKHRDRRDRHRSKSRDGSRGDKSVTIQAPGEPLLDNESTRGDERDDNWGETTTVVTGTSEHSISHDDLTRIAKDMEDSVPLDCSRHLGVAAGAILALLSFLTPLAFLLLPPLLWREELEPCGTACEGLFISVAFKLLILLLGSWALFFRRPKASLPRVFVLRALLMVLVFLLVISYWLFYGVRILDARERSYQGVVQFAVSLVDALLFVHYLAVVLLELRQLQPQFTLKVVRSTDGASRFYNVGHLSIQRVAVWILEKYYHDFPVYNPALLNLPKSVLAKKVSGFKVYSLGEENSTNNSTGQSRAVIAAAARRRDNSHNEYYYEEAEHERRVRKRRARLVVAVEEAFTHIKRLQEEEQKNPREVMDPREAAQAIFASMARAMQKYLRTTKQQPYHTMESILQHLEFCITHDMTPKAFLERYLAAGPTIQYHKERWLAKQWTLVSEEPVTNGLKDGIVFLLKRQDFSLVVSTKKVPFFKLSEEFVDPKSHKFVMRLQSETSV
Turning to B1, the binding result in test [1] was “binds”.

B2: MuSK-HA (muscle specific kinase) (receptor, UniProt Q62838 22-868)
chain: EKLPKAPVITTPLETVDALVEEVATFMCAVESYPQPEISWTRNKILIKLFDTRYSIRENGQLLTILSVEDSDDGIYCCTANNGVGGAVESCGALQVKMKPKITRPPINVKIIEGLKAVLPCTTMGNPKPSVSWIKGDSALRENSRIAVLESGSLRIHNVQKEDAGQYRCVAKNSLGTAYSKLVKLEVEVFARILRAPESHNVTFGSFVTLRCTAIGMPVPTISWIENGNAVSSGSIQENVKDRVIDSRLQLFITKPGLYTCIATNKHGEKFSTAKAAATVSIAEWSKSQKESKGYCAQYRGEVCDAVLVKDSLVFFNTSYPDPEEAQELLIHTAWNELKAVSPLCRPAAEALLCNHLFQECSPGVLPTPMPICREYCLAVKELFCAKEWLAMEGKTHRGLYRSGMHFLPVPECSKLPSMHQDPTACTRLPYLDYKKENITTFPSITSSKPSVDIPNLPASTSSFAVSPAYSMTVIISIMSCFAVFALLTITTLYCCRRRREWKNKKRESAAVTLTTLPSELLLDRLHPNPMYQRMPLLLNPKLLSLEYPRNNIEYVRDIGEGAFGRVFQARAPGLLPYEPFTMVAVKMLKEEASADMQADFQREAALMAEFDNPNIVKLLGVCAVGKPMCLLFEYMAYGDLNEFLRSMSPHTVCSLSHSDLSTRARVSSPGPPPLSCAEQLCIARQVAAGMAYLSERKFVHRDLATRNCLVGENMVVKIADFGLSRNIYSADYYKADGNDAIPIRWMPPESIFYNRYTTESDVWAYGVVLWEIFSYGLQPYYGMAHEEVIYYVRDGNILACPENCPLELYNLMRLCWSKLPADRPSFCSIHRILQRMCERAEGTVGV
B2: the binding result in test [2] and in test [3] was “binds” in each case.
